Results deposited as PubChem BioAssay AID1259323 (Peter MacCallum Cancer Centre, 2017).
This is an unselected part of 715 deposited reagents. 91 of all reagents (13%) count as active. 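Active pools lower the sustained TRPV4 phase but spare the early PAR2 peak; PAR2 agonist and dose are not stated; pools repeat across wells.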 Reagents against one gene are numbered here. A reagent listed more than once was tested more than once; the source does not tell the runs apart. The record does not give: the amount of reagent, the time to read-out.

Screen: 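Kinases required for PAR2 signalling to open the TRPV4 channel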 (primary screen)
Cell system: human HEK293 cells stably carrying inducible TRPV4
Reagent: siRNA pool against human genes
Challenge: PAR2 activation; agonist identity and dose not given
Detection: 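Signal of a calcium dye in live cells following PAR2 activation, plateau and early peak normalised to mock transfection on each plate, mean of duplicate plates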
Reading the numbers: TRPV4 plateau calcium, % of mock: higher = stronger sustained TRPV4 calcium entry than mock; PAR2 peak calcium, % of mock: higher = stronger early PAR2 calcium response than mock
Active means: 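Active when sustained TRPV4 plateau calcium falls below 90% of mock while the early PAR2 peak remains above 79% of mock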

gene	reagent no.	TRPV4 plateau calcium, % of mock	PAR2 peak calcium, % of mock	call
PANK1	1	103	103	inactive
SIK3	1	86.2	93.4	active
PRKCSH	1	93.3	101	inactive
EEF2K	1	94.4	93.1	inactive
ULK4	1	105	102	inactive
PIP4K2C	1	111	104	inactive
PRKD2	1	94.8	94.4	inactive
GK	1	86.3	71.7	inactive
AURKA	1	104	97.2	inactive
STYK1	1	96.6	92.5	inactive
AK1	1	114	105	inactive
ACVR1B	1	109	102	inactive
MAST3	1	101	104	inactive
CILK1	1	106	102	inactive
GRK4	1	95.4	99.6	inactive
PKIA	1	96.2	94.1	inactive
MAPK14	1	99.3	98.4	inactive
RAF1	1	103	97.6	inactive
PHKA1	1	99.7	99.7	inactive
TYK2	1	102	104	inactive
CDK1	1	86.3	93.5	active
DGKQ	1	104	101	inactive
NTRK3	1	99.9	97.1	inactive
ATP23	1	92.3	94.5	inactive
NTRK2	1	103	101	inactive
GNE	1	88.3	96.5	active
BLK	1	105	107	inactive
CSNK1G2	1	98.6	97.6	inactive
WNK3	1	92.2	98	inactive
CDK10	1	105	103	inactive
ARAF	1	94.4	93.8	inactive
ETNK1	1	96.9	100	inactive
TTBK2	1	107	102	inactive
DGKK	1	75.4	67.5	inactive
PIKFYVE	1	94.3	103	inactive
SRPK1	1	128	111	inactive
FGFR1	1	102	96.6	inactive
ADPGK	1	102	104	inactive

Not a retest: an excerpt of the list.
gene	reagent no.	TRPV4 plateau calcium, % of mock	PAR2 peak calcium, % of mock	call
PRKCSH	1	93.3	101	inactive
EEF2K	1	94.4	93.1	inactive
ULK4	1	105	102	inactive
PIP4K2C	1	111	104	inactive
PRKD2	1	94.8	94.4	inactive
GK	1	86.3	71.7	inactive
AURKA	1	104	97.2	inactive
STYK1	1	96.6	92.5	inactive
AK1	1	114	105	inactive
ACVR1B	1	109	102	inactive
MAST3	1	101	104	inactive
CILK1	1	106	102	inactive
GRK4	1	95.4	99.6	inactive
PKIA	1	96.2	94.1	inactive
MAPK14	1	99.3	98.4	inactive

The listing continues:
gene	reagent no.	TRPV4 plateau calcium, % of mock	PAR2 peak calcium, % of mock	call
DYRK4	1	102	105	inactive
GRK7	1	92.7	93.4	inactive
RPS6KA4	1	93.4	95.9	inactive
PNCK	1	92.2	101	inactive
CDK3	1	96.2	104	inactive
EPHB1	1	93.5	95.3	inactive
PANK2	1	98.5	98.2	inactive
BCR	1	102	97.2	inactive
FGFRL1	1	115	105	inactive
PTK2	1	114	104	inactive
PRKACG	1	104	101	inactive
MAK	1	101	97.8	inactive
LRRK2	1	104	102	inactive
GUK1	1	91.1	98.9	inactive
MAGI2	1	102	100	inactive
POMK	1	90.5	92.1	inactive
POMK	1	106	102	inactive
CALM1	1	114	114	inactive
GTF2H1	1	91.5	91.6	inactive
CRKL	1	102	101	inactive
PRKAR2A	1	105	102	inactive
EPHB2	1	91.8	87.6	inactive
MAPKAPK3	1	89.1	104	active
PIK3C2A	1	87.2	92.9	active
KSR2	1	122	104	inactive
CDC7	1	90.1	89.1	inactive
TSSK3	1	95.4	93	inactive
TBK1	1	102	100	inactive
PAK4	1	96.3	92.8	inactive
GSK3B	1	94.3	89.8	inactive
MTOR	1	86.2	87.9	active
FASTK	1	81.5	85.9	active
CDC42BPG	1	96.5	95.5	inactive
CAMK1D	1	96.9	95.8	inactive
TYRO3	1	99.1	97.6	inactive
EPHA8	1	95.5	97.5	inactive
NME3	1	111	106	inactive
ULK1	1	94.4	96.8	inactive
MPP3	1	96.1	101	inactive
ELP1	1	106	110	inactive
PAK3	1	96.6	97.8	inactive
PDXK	1	106	91	inactive
MAP3K6	1	95	104	inactive
ERBB3	1	112	109	inactive
PRKY	1	107	103	inactive
DDR1	1	97.8	99.8	inactive
STK26	1	99.4	101	inactive
CDKL1	1	87.7	90.7	active
PIP5KL1	1	103	99.9	inactive
INSR	1	102	102	inactive
RPS6KA5	1	96.2	100	inactive
TSSK6	1	104	94.8	inactive
TSSK6	2	85.2	86.1	active
TP53RK	1	104	102	inactive
STK24	1	110	111	inactive
MAP4K3	1	97.8	101	inactive
TRIB3	1	100	97.8	inactive
ACVR1	1	88	88.4	active
STK38	1	102	102	inactive
MAST4	1	109	102	inactive
FER	1	93.9	89.1	inactive
STRADA	1	86.7	93.8	active
MAST1	1	86.4	91.7	active
FRK	1	93.1	97.9	inactive
CDK8	1	102	94.7	inactive
MAPK15	1	98.4	100	inactive
PRKAB2	1	84.5	94.6	active
MAP3K10	1	107	104	inactive
DGKD	1	108	105	inactive
